Experimental data published in publication PMC8062120.
These are yes or no findings as the source states them, for the method shown. Some results given as binding are weak or reduced against the parent protein; the word gives no strength. For some assays here: Tags and fused reporters may be left off the sequences shown.

The chains behind the UniProt entries cited, without tags or fusion partners.
UniProt P35609: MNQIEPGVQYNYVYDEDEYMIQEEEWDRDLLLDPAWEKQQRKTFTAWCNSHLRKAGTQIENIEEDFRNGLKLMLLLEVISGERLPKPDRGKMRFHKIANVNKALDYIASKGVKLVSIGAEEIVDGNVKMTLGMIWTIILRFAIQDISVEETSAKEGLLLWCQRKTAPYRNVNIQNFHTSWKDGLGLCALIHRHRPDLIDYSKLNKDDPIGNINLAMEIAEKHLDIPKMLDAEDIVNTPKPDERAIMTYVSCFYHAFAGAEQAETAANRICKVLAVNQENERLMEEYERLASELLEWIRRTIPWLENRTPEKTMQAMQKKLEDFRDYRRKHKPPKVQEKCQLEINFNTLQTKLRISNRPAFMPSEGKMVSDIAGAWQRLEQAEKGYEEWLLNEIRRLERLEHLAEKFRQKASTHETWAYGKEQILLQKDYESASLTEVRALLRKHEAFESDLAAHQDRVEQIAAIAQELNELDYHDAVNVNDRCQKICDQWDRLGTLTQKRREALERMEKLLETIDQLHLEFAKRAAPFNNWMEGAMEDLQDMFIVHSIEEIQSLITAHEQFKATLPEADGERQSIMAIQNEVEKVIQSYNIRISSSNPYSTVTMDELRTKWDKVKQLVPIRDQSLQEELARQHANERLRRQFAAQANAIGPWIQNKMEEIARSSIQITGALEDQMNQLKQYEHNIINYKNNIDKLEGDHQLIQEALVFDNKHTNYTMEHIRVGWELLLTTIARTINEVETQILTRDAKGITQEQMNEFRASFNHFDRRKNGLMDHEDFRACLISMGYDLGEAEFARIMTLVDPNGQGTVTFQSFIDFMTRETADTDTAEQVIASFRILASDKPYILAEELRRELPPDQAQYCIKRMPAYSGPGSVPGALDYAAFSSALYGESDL

Key:
[1] = molecular target: Myotilin Ig1Ig2^250–498 (human) (UniProt Q9UBF9); assay: SAXS; batch SAXS at high or comparable concentrations; Ig1Ig2^250–444 up to 14.12 mg/ml, Ig1Ig2^250–498 up to 42.8 mg/ml, Ig1Ig2^220–452 up to 52 or 36.6 mg/ml, R405K up to 45.5 mg/ml; 20 mM HEPES, 150 mM NaCl, 5% glycerol, 1 mM DTT, pH 7.4 (one 220–452 set in 20 mM MES, 200 mM NaCl, pH 6.0); mass from I0, Rg, Dmax, P(r); monomer to dimer; both …
[2] = molecular target: T1, Full-length myotilin with N-terminal thioredoxin tag (Trx-MYOT) (human) (UniProt Q9UBF9); assay: pull-down; Trx-MYOT (5 μM) mixed with α-actinin-2 constructs (2.5 to 7.5 μM) in buffer P (20 mM Tris-HCl, 100 mM NaCl, 10 mM imidazole, 5% glycerol, pH 7.5), captured on Co2+-loaded Chelating Sepharose beads, room temperature; SDS-PAGE; both purified
T1 sequence: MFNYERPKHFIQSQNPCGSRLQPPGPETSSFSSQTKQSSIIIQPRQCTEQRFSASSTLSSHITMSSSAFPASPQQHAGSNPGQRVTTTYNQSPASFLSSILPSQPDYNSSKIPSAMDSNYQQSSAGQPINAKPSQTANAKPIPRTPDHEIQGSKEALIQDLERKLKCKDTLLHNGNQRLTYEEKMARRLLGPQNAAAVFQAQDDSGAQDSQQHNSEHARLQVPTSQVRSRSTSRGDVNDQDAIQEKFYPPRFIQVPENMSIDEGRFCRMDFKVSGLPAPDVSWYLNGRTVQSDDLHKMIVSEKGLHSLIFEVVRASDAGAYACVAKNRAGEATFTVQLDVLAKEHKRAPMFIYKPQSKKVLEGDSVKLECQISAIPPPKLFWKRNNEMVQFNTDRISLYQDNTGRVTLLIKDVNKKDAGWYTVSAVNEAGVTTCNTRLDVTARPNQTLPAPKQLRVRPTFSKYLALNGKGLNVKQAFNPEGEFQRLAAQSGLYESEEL

Row | Substance | binding [1] | binding [2]
1 | Myotilin Ig1Ig2^250–498 (from UniProt Q9UBF9 250-498) (domain or fragment) | binds weakly | –
2 | Wild-type α-actinin-2 (ACTN2-WT) (from UniProt P35609 1-894) | – | no binding (tested: 2.5 to 7.5 μM)
